These results are taken from PMC11801372.

Amino acid sequences for entries named in this document (tags omitted).
UniProt Q9DBD5: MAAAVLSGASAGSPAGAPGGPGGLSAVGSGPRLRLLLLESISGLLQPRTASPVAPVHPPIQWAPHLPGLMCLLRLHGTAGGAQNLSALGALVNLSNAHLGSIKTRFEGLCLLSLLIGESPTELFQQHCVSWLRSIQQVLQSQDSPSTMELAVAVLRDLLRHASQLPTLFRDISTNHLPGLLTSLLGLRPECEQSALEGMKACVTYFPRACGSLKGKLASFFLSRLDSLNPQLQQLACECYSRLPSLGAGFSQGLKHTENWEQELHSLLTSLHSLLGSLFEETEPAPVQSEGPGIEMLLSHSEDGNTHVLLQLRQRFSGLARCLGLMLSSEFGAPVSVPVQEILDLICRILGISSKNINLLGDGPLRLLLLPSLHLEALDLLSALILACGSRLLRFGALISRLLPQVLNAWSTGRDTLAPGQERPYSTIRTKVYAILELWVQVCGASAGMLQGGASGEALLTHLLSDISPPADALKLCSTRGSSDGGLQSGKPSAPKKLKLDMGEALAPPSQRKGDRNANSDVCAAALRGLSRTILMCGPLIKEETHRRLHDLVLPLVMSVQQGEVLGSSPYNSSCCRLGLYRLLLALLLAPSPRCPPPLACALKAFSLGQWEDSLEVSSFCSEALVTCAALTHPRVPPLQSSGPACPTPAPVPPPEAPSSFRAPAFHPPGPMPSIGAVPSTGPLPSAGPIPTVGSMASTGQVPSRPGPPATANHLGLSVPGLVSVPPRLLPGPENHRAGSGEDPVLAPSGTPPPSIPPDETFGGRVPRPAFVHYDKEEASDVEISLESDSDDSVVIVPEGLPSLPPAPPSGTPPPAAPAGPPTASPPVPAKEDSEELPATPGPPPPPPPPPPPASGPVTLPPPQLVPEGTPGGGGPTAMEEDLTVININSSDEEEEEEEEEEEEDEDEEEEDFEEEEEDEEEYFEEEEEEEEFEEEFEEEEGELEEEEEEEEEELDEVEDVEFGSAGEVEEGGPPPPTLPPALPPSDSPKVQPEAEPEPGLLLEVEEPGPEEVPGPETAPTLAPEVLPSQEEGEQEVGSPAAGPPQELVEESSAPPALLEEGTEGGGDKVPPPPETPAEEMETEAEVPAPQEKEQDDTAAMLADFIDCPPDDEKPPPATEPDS

Results are given in words; binding and its absence hold for the method and conditions named. Binding seen in cells or lysates may run through a third protein. Some results given as binding are weak or reduced against the parent protein; the word gives no strength. Sequences can lack the tags named with a protein.

One test addresses T1, FLAG-NANOG (UniProt Q80Z64).
T1 sequence: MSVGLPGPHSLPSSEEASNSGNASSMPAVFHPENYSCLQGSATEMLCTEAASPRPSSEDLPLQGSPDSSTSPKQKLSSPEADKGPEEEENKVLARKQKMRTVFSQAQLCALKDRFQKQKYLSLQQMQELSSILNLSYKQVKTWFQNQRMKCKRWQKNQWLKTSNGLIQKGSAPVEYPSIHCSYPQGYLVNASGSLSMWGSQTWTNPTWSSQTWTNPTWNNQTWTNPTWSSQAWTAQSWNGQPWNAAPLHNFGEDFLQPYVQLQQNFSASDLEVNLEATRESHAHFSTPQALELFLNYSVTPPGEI
The experiment in a line: co-IP; anti-Flag M2 agarose beads on lysate of ESCs cultured 3 days in 2iL; TNE buffer (50 mM tris-HCl, 1 mM EDTA, 300 mM NaCl, 0.5% NP-40), sonicated, benzonase added, 2 hours at 4°C; immunoblot for SPIC-GFP. On the technique in general: Immunoblotting shows a protein as a band on a membrane.

The next test concerns the target FLAG-PELP1 (mouse) (UniProt Q9DBD5). The description is as above.

B1: SPIC-green fluorescent protein (GFP) fusion protein (protein, UniProt Q6P3D7 1-242)
chain: MTCCIDQDSLGQTFQDAIDILIQQSAGESQYSSENRNYMAIINPYPHVRGNANYYGMSPTENPLYDWRGVTNGSADLYLEGGFHQSVQNIAESQLVQPPFFQQKGGRGRRKLRLFEYLFESLCNSEMVSCIQWVDKARGIFQFISKNKETLAELWGQRKGNRKPMTYQKMARALRNYARTGEIIKIRRKLTYQFSEAVLQRLAPANYLGKDLFYPQYGQPDQGYLSLNHWNANHYAHGSYQS
For the molecule B1, the binding entry with FLAG-NANOG and with FLAG-PELP1 (mouse) was “binds” in each case.
